Assay results from patent US20240216313A1, “ELAFIBRANOR DERIVATIVES AGONISTS OF PPAR FOR USE IN THE TREATMENT OF SEPSIS” (Genfit, priority 2021, published 2024).

System: THP1 macrophages
Assay: Macrophage activation: MCP1 and TNFα secretion induced by LPS from Klebsiella in THP1 macrophages (HTRF)
Format: cell-based
Conditions: Homo sapiens, THP-1, 10 μM, 24 h, then LPS Klebsiella 6 h; read-out: % inhibition of MCP1 secretion over mean Veh.
Procedure: In order to test the efficacy of the compounds on macrophage activation and pro-inflammatory cytokine production, 2.5×10^4 THP-1 cells were cultured in a 384-well plate and treated with 100 ng/mL PMA (#P8139, Sigma) for 24 h to induce differentiation into macrophages.
Then, medium was removed and FBS-deprived medium containing 1 or 10 μM compound was added for 24 h. Finally, THP1 macrophages were stimulated for 6 h with 100 ng/mL LPS (Klebsiella pneumoniae, #L4268, Sigma-Aldrich).
Monocyte chemoattractant protein 1 (MCP1) and […] (TNFα) were measured in cell supernatants by Homogeneous Time Resolved Fluorescence (HTRF, #62HTNFAPEG for TNFα, and 62HCCL2PEG for MCP1, Cisbio). Fluorescence was measured with Infinite 500 (#30019337, Tecan) to determine the concentration of cytokines.

Compound: CC(C)OC(=O)C(C)(C)Oc1ccc(C(=O)c2ccc(Cl)cc2)cc1 [Cpd. 19, fenofibrate, reference compound]
- inhibition at 10 µM: 89%
